Measured values: the supplement of paper PMC7666118
Some of the results follow.

By UniProt entry, the sequences of proteins in these tests, tags left out. Where a name states a change or a piece, a line headed by the entry shows the natural chain unless it says otherwise.
UniProt Q86U28: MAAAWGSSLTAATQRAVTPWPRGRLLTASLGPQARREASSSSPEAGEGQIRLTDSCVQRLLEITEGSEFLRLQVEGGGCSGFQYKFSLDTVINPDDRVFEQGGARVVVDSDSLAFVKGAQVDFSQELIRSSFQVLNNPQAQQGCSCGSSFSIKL
UniProt P10809, whole entry: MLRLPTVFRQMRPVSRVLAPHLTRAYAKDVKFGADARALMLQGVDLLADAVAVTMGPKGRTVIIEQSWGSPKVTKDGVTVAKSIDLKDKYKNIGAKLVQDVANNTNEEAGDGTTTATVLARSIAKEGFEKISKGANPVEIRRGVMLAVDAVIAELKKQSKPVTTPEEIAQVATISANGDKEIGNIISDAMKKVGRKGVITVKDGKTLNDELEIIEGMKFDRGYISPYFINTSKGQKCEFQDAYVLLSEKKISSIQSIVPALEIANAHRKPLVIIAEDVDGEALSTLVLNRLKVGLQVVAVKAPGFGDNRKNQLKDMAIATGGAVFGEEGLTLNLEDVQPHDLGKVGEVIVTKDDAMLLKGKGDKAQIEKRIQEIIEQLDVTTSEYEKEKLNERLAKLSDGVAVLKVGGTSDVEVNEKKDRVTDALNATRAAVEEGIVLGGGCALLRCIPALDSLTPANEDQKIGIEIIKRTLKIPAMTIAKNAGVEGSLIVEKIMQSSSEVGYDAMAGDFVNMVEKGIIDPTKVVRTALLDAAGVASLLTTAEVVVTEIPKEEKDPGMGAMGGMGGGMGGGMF
UniProt O43837: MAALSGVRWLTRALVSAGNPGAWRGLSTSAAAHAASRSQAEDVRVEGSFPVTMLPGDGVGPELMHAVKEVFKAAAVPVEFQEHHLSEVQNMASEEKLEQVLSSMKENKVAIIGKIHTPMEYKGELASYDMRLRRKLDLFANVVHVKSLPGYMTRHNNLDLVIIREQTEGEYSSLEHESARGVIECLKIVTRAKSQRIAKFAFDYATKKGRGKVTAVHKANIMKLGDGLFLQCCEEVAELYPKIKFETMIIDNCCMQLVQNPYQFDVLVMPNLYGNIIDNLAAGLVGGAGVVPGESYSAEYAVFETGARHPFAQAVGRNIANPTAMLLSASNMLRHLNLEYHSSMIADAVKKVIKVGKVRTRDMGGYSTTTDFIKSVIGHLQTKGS
UniProt Q96J02: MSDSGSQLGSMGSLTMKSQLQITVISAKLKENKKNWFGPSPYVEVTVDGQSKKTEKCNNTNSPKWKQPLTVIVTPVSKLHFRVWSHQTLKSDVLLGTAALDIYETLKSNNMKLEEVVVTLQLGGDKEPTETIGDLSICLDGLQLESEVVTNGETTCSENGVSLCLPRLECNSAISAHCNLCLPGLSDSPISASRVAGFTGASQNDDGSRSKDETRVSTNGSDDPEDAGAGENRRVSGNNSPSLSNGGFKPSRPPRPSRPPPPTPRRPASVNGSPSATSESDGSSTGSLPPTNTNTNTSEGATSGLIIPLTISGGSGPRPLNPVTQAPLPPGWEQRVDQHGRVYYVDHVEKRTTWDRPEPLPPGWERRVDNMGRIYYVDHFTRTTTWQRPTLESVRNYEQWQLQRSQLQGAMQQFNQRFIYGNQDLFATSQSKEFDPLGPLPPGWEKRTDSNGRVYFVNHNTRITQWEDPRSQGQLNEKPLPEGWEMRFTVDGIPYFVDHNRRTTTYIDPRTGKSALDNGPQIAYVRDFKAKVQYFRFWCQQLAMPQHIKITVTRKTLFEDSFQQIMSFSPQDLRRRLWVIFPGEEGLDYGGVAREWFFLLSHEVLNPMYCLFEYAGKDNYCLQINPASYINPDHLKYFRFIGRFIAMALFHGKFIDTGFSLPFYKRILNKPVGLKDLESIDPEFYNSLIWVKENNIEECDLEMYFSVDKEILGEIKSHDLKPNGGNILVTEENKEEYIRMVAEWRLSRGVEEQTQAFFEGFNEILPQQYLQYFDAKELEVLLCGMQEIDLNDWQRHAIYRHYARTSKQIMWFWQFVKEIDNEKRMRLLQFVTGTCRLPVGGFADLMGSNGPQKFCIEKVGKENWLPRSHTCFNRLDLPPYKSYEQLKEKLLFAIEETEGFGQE
UniProt O43310: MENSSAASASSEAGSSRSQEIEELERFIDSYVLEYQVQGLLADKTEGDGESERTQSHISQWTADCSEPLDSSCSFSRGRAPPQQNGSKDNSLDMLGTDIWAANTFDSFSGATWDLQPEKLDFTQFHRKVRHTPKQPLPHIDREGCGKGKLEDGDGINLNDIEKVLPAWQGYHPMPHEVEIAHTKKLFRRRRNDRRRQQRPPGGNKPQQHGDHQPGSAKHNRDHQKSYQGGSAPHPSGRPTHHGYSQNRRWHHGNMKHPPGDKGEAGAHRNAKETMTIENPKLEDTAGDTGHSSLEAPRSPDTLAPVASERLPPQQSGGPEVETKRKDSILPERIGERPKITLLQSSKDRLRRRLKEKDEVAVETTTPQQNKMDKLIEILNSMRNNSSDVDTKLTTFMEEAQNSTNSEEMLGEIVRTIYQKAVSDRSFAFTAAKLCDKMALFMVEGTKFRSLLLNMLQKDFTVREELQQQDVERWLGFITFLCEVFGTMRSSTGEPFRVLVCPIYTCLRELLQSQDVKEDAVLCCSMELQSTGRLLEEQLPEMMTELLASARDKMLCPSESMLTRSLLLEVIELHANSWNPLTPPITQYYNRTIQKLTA
UniProt Q9NSE4: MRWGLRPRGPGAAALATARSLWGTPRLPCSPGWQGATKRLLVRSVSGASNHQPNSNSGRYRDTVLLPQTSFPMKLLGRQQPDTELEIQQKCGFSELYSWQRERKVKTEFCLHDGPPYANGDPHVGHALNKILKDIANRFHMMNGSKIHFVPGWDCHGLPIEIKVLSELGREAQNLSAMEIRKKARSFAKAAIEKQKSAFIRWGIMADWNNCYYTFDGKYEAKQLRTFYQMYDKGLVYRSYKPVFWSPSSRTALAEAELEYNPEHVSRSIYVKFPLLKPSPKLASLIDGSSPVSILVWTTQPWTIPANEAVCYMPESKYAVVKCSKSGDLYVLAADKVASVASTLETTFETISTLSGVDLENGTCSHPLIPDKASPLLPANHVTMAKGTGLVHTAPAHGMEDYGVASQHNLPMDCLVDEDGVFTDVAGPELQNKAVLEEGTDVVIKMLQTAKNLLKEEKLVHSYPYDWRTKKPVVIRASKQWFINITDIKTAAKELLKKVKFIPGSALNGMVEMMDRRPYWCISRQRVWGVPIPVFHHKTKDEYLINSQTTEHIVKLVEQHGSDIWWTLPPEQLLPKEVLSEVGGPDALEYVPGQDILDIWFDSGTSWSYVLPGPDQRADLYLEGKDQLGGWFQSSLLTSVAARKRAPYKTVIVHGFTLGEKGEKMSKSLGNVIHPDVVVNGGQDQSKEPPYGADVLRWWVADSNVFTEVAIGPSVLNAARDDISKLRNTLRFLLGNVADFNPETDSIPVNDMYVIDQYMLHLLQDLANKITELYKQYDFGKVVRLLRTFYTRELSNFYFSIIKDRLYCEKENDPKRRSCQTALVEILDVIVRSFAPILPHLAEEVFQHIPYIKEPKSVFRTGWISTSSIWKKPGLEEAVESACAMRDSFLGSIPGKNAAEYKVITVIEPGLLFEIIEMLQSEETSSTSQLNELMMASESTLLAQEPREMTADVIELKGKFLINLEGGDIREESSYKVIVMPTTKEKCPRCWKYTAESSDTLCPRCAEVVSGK
UniProt P05114: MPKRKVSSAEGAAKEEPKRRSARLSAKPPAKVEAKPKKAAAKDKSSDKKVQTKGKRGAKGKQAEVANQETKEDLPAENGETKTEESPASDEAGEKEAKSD
UniProt Q8NBQ5: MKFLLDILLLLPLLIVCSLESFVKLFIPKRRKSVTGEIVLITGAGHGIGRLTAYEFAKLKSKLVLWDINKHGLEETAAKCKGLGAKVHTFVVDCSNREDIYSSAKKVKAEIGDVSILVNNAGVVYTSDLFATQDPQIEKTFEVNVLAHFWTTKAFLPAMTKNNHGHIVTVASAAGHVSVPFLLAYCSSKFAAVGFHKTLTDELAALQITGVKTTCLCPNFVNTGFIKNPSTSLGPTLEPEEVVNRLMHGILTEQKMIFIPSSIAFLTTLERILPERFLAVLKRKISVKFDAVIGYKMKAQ
UniProt Q9Y6Y0: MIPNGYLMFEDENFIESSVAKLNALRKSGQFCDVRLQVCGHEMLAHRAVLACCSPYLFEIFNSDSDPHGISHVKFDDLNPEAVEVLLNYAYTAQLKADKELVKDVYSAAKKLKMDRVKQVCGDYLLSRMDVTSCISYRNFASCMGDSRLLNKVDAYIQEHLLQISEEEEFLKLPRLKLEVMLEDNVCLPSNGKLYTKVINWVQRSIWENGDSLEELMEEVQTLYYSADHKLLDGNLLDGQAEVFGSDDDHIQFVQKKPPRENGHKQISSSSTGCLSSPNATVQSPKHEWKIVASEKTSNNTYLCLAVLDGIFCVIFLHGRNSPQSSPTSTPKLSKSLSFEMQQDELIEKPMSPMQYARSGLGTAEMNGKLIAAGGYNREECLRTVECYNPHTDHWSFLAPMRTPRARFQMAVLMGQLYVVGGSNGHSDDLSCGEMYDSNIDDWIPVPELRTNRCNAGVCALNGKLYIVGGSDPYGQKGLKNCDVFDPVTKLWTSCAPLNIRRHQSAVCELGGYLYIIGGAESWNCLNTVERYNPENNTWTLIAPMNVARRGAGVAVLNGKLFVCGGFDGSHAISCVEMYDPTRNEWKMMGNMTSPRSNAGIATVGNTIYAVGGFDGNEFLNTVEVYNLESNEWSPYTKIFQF
UniProt Q9P2X3: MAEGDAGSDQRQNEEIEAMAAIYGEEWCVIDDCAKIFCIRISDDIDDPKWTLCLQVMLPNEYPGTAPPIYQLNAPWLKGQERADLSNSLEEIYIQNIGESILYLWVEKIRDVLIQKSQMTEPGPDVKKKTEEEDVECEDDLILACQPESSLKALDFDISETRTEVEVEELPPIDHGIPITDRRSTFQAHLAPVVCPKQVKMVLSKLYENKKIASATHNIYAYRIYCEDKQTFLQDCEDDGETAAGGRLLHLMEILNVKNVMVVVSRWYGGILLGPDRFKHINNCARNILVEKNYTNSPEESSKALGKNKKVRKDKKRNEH
UniProt P22626: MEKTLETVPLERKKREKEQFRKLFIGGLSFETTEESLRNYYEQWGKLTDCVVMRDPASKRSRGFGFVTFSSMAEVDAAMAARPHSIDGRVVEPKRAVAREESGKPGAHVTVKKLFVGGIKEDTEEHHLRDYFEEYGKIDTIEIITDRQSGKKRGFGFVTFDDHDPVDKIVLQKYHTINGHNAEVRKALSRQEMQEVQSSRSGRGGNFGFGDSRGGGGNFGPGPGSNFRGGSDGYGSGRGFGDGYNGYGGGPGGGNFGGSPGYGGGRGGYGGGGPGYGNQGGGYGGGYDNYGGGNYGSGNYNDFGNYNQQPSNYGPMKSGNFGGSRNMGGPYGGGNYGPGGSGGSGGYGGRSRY
UniProt P51617, whole entry, looked up: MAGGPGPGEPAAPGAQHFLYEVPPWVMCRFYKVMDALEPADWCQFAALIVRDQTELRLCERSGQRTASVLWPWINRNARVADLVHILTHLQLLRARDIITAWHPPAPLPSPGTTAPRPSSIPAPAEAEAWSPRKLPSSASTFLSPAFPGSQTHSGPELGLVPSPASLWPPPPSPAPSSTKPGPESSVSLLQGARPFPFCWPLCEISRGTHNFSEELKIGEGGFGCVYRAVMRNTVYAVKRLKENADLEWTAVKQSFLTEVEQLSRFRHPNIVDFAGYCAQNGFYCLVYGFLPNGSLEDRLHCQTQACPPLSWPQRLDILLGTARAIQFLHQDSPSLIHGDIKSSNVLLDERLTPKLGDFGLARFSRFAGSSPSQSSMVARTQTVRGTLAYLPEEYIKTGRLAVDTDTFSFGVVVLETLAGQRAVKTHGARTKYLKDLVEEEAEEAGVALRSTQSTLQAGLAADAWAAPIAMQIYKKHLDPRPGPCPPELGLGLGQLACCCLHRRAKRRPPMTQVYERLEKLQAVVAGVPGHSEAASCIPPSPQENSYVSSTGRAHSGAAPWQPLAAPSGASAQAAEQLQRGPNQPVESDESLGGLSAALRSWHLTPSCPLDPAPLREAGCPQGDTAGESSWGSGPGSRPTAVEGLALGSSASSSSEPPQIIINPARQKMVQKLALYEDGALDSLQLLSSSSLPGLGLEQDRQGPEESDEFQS
UniProt Q9NZL4: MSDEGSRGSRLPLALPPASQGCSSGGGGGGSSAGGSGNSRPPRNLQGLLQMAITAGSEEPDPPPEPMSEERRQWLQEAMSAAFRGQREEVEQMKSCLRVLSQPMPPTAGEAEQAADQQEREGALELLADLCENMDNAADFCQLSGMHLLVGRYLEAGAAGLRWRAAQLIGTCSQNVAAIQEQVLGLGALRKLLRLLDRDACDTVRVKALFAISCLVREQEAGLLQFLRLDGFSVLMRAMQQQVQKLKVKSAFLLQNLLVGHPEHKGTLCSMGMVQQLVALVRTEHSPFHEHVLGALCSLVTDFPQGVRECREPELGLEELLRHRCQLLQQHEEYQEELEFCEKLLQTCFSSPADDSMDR
UniProt Q9NV31: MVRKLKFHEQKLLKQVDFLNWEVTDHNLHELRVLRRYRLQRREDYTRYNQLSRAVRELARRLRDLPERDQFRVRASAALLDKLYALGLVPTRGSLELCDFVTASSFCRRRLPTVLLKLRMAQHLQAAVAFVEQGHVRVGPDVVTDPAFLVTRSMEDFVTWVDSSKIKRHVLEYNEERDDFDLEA

Compound: COc1ccc(Cn2ccc3ccc(C(=O)NO)cc32)cc1
Assay: dose-dependent thermal stabilisation call (2D-TPP, DLPTP, 10% FDR) (binary (1 = stabilised)); higher = stabilised by the compound
Conditions: system: HL-60 intact cells; concentration range 0.04-10 µM

Target | dose-dependent thermal stabilisation call
HS2ST1 (UniProt Q7LGA3) | inactive: 0
ISCA2 (UniProt Q86U28) | inactive: 0
HSPD1 (UniProt P10809) | inactive: 0
IFI30 (UniProt P13284) | inactive: 0
IBTK (UniProt Q9P2D0) | inactive: 0
IDH3B (UniProt O43837) | inactive: 0
HPDL (UniProt Q96IR7) | inactive: 0
ILF3 (UniProt Q12906) | active: 1
ITCH (UniProt Q96J02) | inactive: 0
KIAA0427 (UniProt O43310) | inactive: 0
IRF2BP2 (UniProt Q7Z5L9) | inactive: 0
IARS2 (UniProt Q9NSE4) | inactive: 0
HMGN1 (UniProt P05114) | inactive: 0
HSD17B11 (UniProt Q8NBQ5) | inactive: 0
IVNS1ABP (UniProt Q9Y6Y0) | inactive: 0
IMPACT (UniProt Q9P2X3) | inactive: 0
HMG20A (UniProt Q9NP66) | inactive: 0
HNRNPA2B1 (UniProt P22626) | inactive: 0
HMMR (UniProt O75330) | inactive: 0
IMPA1 (UniProt P29218) | inactive: 0
ITSN2 (UniProt Q9NZM3) | inactive: 0
ICAM2 (UniProt P13598) | inactive: 0
ITPR2 (UniProt Q14571) | inactive: 0
IRAK1 (UniProt P51617) | inactive: 0
INPP4A (UniProt Q96PE3) | inactive: 0
HSPBP1 (UniProt Q9NZL4) | inactive: 0
IMP3 (UniProt Q9NV31) | inactive: 0

As a working copy, part of the list above:
Target | dose-dependent thermal stabilisation call
IFI30 (UniProt P13284) | inactive: 0
IBTK (UniProt Q9P2D0) | inactive: 0
